Sequences of proteins named here, by UniProt entry; tags and fusion partners are left off.
UniProt P42859: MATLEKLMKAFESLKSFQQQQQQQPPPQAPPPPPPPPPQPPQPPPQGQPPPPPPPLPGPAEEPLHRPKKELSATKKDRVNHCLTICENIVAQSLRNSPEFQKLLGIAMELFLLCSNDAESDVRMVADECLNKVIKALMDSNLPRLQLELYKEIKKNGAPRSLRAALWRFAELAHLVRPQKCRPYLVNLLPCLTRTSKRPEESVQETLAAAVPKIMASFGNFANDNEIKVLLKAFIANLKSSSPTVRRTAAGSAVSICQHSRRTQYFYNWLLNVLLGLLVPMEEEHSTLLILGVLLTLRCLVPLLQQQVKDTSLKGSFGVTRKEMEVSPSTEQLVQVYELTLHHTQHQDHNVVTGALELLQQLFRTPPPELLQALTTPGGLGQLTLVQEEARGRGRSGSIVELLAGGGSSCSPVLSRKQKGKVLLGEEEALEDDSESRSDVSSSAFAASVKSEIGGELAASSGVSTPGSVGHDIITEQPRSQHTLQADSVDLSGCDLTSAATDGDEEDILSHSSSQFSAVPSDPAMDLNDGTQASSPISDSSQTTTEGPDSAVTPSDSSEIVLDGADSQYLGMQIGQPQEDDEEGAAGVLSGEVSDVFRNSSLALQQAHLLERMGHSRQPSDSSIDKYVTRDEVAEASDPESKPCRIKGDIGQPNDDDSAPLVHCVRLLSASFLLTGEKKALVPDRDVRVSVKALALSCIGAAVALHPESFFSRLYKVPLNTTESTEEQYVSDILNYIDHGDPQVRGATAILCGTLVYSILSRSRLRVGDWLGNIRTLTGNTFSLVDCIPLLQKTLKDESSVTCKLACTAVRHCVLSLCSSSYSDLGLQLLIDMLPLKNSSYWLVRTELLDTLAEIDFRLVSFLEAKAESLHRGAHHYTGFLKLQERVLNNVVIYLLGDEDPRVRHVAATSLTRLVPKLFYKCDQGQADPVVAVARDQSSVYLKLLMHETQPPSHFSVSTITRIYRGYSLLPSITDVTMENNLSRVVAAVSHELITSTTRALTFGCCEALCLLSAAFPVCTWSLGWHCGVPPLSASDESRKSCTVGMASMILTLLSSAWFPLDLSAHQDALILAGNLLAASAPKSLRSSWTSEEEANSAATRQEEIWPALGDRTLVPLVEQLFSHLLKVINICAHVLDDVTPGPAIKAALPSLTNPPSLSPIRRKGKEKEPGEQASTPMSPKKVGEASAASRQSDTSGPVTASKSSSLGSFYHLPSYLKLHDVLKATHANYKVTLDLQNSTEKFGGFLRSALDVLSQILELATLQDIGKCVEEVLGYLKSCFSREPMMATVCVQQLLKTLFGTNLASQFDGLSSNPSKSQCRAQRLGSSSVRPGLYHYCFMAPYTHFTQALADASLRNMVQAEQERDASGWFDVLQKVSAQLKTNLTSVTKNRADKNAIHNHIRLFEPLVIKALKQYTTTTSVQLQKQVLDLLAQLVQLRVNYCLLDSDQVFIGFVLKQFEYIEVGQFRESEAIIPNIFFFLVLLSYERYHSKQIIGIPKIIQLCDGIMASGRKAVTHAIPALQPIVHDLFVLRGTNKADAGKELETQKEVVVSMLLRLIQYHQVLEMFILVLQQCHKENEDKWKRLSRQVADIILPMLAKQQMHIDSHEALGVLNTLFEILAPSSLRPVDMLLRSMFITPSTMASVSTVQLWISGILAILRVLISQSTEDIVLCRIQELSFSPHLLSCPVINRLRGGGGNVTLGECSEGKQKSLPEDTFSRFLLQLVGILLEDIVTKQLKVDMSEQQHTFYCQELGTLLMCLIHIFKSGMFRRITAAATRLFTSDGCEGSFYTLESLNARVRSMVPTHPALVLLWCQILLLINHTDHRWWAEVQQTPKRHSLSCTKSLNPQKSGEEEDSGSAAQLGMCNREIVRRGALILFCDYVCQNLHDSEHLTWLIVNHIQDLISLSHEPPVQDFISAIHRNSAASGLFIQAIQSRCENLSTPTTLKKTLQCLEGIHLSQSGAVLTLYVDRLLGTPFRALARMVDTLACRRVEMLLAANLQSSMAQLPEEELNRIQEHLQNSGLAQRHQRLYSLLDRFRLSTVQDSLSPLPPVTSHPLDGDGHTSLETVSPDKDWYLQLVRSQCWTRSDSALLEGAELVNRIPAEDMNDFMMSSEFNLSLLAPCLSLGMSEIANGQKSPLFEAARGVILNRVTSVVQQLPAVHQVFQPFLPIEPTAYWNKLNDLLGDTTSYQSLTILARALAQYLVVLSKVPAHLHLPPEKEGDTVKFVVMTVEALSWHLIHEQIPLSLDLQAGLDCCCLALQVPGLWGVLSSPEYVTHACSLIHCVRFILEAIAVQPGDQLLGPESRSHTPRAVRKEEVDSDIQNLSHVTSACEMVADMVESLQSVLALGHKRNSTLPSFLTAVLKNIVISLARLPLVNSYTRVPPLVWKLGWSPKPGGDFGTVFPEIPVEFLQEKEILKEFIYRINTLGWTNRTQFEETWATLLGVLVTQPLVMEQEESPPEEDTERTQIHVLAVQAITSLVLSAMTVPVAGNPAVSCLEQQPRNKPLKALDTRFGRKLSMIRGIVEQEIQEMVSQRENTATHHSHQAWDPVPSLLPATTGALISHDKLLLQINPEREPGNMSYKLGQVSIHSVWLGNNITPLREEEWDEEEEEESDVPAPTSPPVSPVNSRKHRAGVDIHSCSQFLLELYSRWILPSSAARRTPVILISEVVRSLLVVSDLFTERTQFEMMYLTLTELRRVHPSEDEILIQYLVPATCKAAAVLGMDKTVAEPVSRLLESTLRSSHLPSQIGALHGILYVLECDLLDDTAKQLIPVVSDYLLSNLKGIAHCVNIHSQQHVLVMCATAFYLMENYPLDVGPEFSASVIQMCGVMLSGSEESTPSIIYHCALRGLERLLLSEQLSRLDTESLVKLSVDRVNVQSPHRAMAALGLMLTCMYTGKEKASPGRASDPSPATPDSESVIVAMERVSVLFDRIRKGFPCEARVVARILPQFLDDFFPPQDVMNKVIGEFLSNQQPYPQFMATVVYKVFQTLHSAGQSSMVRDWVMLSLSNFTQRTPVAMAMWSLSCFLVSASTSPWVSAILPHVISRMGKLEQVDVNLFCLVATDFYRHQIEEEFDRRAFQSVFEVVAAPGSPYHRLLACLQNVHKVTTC
UniProt P42858: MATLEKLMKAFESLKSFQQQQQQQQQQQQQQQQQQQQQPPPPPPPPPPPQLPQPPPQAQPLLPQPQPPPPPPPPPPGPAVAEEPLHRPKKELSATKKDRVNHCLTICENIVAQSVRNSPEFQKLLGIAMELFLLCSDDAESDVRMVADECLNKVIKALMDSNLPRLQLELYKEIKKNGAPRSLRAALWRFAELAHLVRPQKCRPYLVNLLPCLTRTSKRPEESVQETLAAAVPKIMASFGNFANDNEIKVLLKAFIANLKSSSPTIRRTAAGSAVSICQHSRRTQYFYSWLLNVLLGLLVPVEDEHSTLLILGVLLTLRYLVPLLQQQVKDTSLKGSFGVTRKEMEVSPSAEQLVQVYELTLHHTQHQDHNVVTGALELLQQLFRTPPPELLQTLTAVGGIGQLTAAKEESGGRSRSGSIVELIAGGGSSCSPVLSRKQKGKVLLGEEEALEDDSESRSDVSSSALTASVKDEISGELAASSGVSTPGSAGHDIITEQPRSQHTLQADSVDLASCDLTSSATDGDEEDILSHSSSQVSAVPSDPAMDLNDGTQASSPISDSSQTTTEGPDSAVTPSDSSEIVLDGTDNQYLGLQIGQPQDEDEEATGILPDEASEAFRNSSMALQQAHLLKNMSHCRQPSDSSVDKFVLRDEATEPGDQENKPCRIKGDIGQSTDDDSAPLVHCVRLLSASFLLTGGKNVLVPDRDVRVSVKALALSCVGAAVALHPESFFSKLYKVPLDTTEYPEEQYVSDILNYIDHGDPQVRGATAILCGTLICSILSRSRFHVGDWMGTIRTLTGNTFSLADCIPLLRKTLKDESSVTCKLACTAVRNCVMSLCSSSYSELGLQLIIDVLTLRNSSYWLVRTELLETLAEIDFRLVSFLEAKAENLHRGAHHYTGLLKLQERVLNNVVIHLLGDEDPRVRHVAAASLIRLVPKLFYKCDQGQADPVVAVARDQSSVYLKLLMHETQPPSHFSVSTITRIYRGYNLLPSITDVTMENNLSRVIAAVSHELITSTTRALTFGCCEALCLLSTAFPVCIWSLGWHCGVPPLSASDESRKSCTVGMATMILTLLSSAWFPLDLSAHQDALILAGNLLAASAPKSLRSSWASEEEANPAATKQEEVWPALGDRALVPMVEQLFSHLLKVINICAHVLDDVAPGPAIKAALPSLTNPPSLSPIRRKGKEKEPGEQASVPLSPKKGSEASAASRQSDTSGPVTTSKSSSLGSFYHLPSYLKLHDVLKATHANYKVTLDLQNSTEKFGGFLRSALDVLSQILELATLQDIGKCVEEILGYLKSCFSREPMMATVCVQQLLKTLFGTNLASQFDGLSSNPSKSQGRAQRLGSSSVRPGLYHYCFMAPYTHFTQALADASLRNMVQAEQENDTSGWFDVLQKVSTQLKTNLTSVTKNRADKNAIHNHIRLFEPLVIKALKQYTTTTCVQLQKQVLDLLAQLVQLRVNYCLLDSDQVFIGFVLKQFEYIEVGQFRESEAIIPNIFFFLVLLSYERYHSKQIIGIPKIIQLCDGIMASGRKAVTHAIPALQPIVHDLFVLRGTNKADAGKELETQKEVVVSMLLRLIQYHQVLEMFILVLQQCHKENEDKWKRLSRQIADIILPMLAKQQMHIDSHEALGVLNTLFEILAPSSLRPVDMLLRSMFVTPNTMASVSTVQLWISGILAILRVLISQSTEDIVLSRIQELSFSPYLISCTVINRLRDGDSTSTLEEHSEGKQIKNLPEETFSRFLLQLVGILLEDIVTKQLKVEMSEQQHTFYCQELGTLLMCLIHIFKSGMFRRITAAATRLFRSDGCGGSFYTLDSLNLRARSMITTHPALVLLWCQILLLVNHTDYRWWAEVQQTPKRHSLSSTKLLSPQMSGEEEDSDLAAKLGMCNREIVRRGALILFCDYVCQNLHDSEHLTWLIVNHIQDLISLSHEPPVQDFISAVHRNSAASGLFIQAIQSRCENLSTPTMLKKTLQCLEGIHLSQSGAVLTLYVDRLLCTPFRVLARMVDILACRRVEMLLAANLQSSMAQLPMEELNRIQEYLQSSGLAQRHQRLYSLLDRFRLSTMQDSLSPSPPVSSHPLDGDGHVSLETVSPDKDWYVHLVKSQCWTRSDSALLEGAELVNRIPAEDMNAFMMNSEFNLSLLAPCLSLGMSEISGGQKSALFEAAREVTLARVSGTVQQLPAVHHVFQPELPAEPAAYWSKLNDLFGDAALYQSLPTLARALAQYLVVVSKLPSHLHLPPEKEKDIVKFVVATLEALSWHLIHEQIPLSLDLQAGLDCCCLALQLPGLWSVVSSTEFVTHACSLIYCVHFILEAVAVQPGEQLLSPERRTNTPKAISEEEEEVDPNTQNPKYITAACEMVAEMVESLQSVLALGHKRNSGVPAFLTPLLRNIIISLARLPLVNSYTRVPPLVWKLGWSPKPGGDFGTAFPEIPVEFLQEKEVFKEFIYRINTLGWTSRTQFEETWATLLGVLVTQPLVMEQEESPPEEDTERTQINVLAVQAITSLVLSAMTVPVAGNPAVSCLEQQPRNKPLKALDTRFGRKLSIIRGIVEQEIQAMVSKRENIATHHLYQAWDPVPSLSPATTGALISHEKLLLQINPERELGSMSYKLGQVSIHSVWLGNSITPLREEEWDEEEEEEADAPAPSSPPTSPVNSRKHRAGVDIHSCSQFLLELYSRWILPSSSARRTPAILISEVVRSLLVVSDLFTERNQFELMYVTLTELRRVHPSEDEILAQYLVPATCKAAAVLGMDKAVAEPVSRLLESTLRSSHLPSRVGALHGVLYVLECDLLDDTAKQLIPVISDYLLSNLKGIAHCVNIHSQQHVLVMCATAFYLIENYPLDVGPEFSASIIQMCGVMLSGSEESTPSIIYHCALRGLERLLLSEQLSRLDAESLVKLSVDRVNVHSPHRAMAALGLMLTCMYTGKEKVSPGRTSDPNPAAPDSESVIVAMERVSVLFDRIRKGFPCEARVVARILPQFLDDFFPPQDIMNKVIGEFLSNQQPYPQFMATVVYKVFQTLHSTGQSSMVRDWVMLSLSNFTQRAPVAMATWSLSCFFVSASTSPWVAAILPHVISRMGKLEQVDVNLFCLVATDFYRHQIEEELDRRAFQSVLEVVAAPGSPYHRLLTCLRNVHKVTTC
UniProt P15927: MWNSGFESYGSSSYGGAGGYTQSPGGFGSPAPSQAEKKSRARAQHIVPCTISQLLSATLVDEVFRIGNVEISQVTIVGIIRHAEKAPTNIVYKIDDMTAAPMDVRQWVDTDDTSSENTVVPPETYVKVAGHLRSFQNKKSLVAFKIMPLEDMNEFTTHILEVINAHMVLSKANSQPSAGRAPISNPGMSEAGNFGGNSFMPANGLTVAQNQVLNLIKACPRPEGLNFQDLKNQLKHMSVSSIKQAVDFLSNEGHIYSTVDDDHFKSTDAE

These are yes or no findings as the source states them, for the method shown. In cells and extracts the contact can be indirect. A yes stands for co-enrichment or nearness to the bait. Other partners may have been found.
What follows are substances tested against normal huntingtin (htt), endogenous in striatum of WT C57BL/6J mice (mouse (endogenous in striatum of C57BL/6J mice)) (UniProt P42859) (assay: affinity purification with mass spectrometry; striatal tissue of WT and HdhQ(150/150) mice lysed in IP Lysis buffer; anti-Htt antibody mix (MAB2166, MAB2168, MAB2170) on Protein G Dynabeads; washed with 50mM TEAB; trypsin digest off the beads; DIA LC-MS/MS).
“Ku70 (X-ray repair cross-complementing 6), mouse striatum (from UniProt P23475 1-608)” was tested, and the binding was “binds”. In the case of “Ku80 (X-ray repair cross-complementing 5), mouse striatum (from UniProt P27641 1-732)”, the binding is reported as “binds”. For “RPA14, mouse striatum (from UniProt Q9CQ71 1-121)”, the binding was “binds”. “RPA32, mouse striatum (from UniProt Q62193 1-270)” was tested, and the binding was “binds”. For “RPA170, mouse striatum (from UniProt Q8VEE4 1-623)”, the binding was “binds”.

These substances were tested against huntingtin (htt), endogenous in NIH393T cells (human (endogenous in NIH393T cells, which the paper calls human)) (UniProt P42858) (assay: affinity purification with mass spectrometry; NIH393T cell pellets, untransfected or overexpressing htt (26Q) or mhtt (51Q), lysed in IP Lysis buffer; anti-Htt antibody mix (MAB2166, MAB2168, MAB2170) on Protein G Dynabeads; washed with 50mM TEAB; trypsin digest off the beads; DIA LC-MS/MS).
With “Ku70, endogenous in NIH393T cells (from UniProt P12956 1-609)” the binding was “binds”. With “Ku80, endogenous in NIH393T cells (from UniProt P13010 1-732)” the binding was “binds”. “RPA1, endogenous in NIH393T cells (from UniProt P27694 1-616)” was tested, and the binding was “binds”. For “RPA2, endogenous in NIH393T cells (from UniProt P15927 1-270)”, the binding was “binds”.
